Results are given in words; binding and its absence hold for the method and conditions named. Some results given as binding are weak or reduced against the parent protein; the word gives no strength.
T1: α-COP isoform 1 (subunit of recombinant human coatomer) (human) (UniProt P53621)
T1 sequence: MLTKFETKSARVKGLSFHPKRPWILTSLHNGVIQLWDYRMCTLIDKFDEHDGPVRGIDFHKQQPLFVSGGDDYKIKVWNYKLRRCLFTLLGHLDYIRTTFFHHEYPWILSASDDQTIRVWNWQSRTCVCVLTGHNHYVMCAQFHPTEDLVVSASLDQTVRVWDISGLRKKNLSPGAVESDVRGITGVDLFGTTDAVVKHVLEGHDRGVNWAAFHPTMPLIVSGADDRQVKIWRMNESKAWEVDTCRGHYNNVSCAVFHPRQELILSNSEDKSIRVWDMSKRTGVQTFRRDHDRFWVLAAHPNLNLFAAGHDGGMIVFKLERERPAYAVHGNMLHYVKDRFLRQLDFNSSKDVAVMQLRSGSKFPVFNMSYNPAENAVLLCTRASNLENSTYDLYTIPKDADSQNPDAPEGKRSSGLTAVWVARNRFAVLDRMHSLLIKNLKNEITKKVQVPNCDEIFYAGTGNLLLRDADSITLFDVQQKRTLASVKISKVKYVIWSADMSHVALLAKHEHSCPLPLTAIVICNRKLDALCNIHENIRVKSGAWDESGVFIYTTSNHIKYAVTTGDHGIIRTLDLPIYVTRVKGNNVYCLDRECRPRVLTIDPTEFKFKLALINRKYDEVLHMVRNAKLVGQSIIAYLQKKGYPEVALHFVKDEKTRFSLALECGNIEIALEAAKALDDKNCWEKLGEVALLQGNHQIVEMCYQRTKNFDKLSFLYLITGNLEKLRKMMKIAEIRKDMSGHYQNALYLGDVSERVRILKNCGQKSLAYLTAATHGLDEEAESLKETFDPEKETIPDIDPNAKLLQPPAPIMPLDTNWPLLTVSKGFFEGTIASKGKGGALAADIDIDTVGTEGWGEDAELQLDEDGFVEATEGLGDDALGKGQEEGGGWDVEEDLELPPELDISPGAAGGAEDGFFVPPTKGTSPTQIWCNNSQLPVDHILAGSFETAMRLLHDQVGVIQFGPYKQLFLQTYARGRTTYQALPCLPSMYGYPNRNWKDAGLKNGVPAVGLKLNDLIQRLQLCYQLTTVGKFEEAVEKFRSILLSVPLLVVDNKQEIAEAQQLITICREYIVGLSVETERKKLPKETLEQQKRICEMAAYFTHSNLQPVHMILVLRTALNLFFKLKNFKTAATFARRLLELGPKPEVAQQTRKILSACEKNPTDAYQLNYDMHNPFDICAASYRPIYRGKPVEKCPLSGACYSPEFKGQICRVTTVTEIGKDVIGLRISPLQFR

Sequences of proteins named here, by UniProt entry; tags and fusion partners are left off.
UniProt P53618: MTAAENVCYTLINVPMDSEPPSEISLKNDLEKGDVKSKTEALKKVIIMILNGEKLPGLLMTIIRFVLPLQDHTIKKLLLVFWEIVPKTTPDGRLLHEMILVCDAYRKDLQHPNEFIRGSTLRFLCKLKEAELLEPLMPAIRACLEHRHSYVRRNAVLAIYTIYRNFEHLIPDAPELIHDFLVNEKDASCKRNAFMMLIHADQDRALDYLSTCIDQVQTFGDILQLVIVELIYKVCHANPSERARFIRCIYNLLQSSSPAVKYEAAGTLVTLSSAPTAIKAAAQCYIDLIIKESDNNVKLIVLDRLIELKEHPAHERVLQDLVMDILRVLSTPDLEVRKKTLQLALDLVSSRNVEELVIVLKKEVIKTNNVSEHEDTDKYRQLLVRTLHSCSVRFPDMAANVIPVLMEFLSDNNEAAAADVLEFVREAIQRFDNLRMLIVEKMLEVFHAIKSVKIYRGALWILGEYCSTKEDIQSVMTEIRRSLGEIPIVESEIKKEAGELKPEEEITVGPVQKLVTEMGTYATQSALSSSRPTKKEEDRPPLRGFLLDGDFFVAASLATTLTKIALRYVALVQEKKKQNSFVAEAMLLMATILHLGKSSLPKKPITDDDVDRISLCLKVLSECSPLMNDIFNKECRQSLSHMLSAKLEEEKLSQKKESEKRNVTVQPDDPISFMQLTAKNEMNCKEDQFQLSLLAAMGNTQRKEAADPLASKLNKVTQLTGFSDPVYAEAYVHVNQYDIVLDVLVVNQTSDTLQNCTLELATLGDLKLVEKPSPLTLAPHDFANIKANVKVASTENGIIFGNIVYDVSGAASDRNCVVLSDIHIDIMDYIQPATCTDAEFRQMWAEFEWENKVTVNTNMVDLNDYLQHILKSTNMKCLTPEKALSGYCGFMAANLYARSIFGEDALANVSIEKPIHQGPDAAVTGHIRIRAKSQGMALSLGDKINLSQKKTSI


How the values were obtained:
[1] = biological target: β-COP (subunit of recombinant human coatomer) (human) (UniProt P53618); experiment: cross-linking; CXMS: about 12 μg purified COPI complex (co-expressed and purified as one complex) with BS3, DSS or Sulfo-GMBS, protein : cross-linker 1:8 or 1:4, one hour at room temperature; trypsin, LC-MS/MS, pLink; both purified
[2] = biological target: T1, α-COP isoform 1 (subunit of recombinant human coatomer) (human); experiment: negative-stain EM, single-particle reconstruction; soluble recombinant human coatomer, co-expressed and purified as one complex; 2% uranyl acetate; 19 Å overall, 18 Å and 20 Å for the two parts after focus refinement; model of membrane-bound coatomer (PDB 5A1U) fitted as a rigid body; both purified

| binding [1] | binding [2] | Binder |
| --- | --- | --- |
| binds | – | δ-COP isoform 1 (subunit of recombinant human coatomer) (protein, UniProt P48444-1 1-511) MVLLAAAVCTKAGKAIVSRQFVEMTRTRIEGLLAAFPKLMNTGKQHTFVETESVRYVYQPMEKLYMVLITTKNSNILEDLETLRLFSRVIPEYCRALEENEISEHCFDLIFAFDEIVALGYRENVNLAQIRTFTEMDSHEEKVFRAVRETQEREAKAEMRRKAKELQQARRDAERQGKKAPGFGGFGSSAVSGGSTAAMITETIIETDKPKVAPAPARPSGPSKALKLGAKGKEVDNFVDKLKSEGETIMSSSMGKRTSEATKMHAPPINMESVHMKIEEKITLTCGRDGGLQNMELHGMIMLRISDDKYGRIRLHVENEDKKGVQLQTHPNVDKKLFTAESLIGLKNPEKSFPVNSDVGVLKWRLQTTEESFIPLTINCWPSESGNGCDVNIEYELQEDNLELNDVVITIPLPSGVGAPVIGEIDGEYRHDSRRNTLEWCLPVIDAKNKSGSLEFSIAGQPNDFFPVQVSFVSKKNYCNIQVTKVTQVDGNSPVRFSTETTFLVDKYEIL |
| – | binds | β′-COP (subunit of recombinant human coatomer) (protein, UniProt P35606-1 1-906) MPLRLDIKRKLTARSDRVKSVDLHPTEPWMLASLYNGSVCVWNHETQTLVKTFEVCDLPVRAAKFVARKNWVVTGADDMQIRVFNYNTLERVHMFEAHSDYIRCIAVHPTQPFILTSSDDMLIKLWDWDKKWSCSQVFEGHTHYVMQIVINPKDNNQFASASLDRTIKVWQLGSSSPNFTLEGHEKGVNCIDYYSGGDKPYLISGADDRLVKIWDYQNKTCVQTLEGHAQNVSCASFHPELPIIITGSEDGTVRIWHSSTYRLESTLNYGMERVWCVASLRGSNNVALGYDEGSIIVKLGREEPAMSMDANGKIIWAKHSEVQQANLKAMGDAEIKDGERLPLAVKDMGSCEIYPQTIQHNPNGRFVVVCGDGEYIIYTAMALRNKSFGSAQEFAWAHDSSEYAIRESNSIVKIFKNFKEKKSFKPDFGAESIYGGFLLGVRSVNGLAFYDWDNTELIRRIEIQPKHIFWSDSGELVCIATEESFFILKYLSEKVLAAQETHEGVTEDGIEDAFEVLGEIQEIVKTGLWVGDCFIYTSSVNRLNYYVGGEIVTIAHLDRTMYLLGYIPKDNRLYLGDKELNIISYSLLVSVLEYQTAVMRRDFSMADKVLPTIPKEQRTRVAHFLEKQGFKQQALTVSTDPEHRFELALQLGELKIAYQLAVEAESEQKWKQLAELAISKCQFGLAQECLHHAQDYGGLLLLATASGNANMVNKLAEGAERDGKNNVAFMSYFLQGKVDACLELLIRTGRLPEAAFLARTYLPSQVSRVVKLWRENLSKVNQKAAESLADPTEYENLFPGLKEAFVVEEWVKETHADLWPAKQYPLVTPNEERNVMEEGKDFQPSRSTAQQELDGKPASPTPVIVASHTANKEEKSLLELEVDLDNLELEDIDTTDINLDEDILDD |

From PMC4980336
